The source of these data is patent US11685741B2, “Fluorescent probes” (University of Massachusetts, priority 2017, dated 2023).

Each structure is given as a SMILES string.

The nature of this data set: Binding studies of sensor with Fe2+ (stoichiometry, affinity, reversibility). Particulars: H2O/THF pH 7.3. The procedure:
The binding stoichiometry between the sensor Rh6GD and Fe^2+ was investigated by absorption and fluorescence titrations first. The sensor, Rh6GD has an absorption band at ˜420 nm (FIG. 26) which is due to the transition from S0 to S1 states (A. Chakraborty, et al., N. Chem. Phys., 2006, 324, 733) of the dimethylaminocinnamaldehyde moiety. […] Similar titrations were performed and were monitored by fluorescence spectroscopy.
The binding constant was estimated by using the absorption titration results. The equations below were used to calculate the binding constant for 2:1 complexes following a reported procedure (M. Guo, et al., Dalton Trans., 2007, 102, 4951). S+2L ? SL2 (1) The complex apparent binding constant is given by
[formula] Fc is the fraction of L that formed a complex; the subscripts e and o stand for equilibrium and initial concentrations, respectively. Au, Am, and Ac are the absorbances of solutions of L (before any Fe^2+ was added), during the titration, and at saturation, respectively. The concentration of free Fe^2+ at equilibrium, [S]e, is found with the following identity: [S]e=[S]o−[SL2]e[=S]o−Fc[L]o (4) Finally, the integrated apparent binding constant equation is shown in equation (5).
Reversibility experiments were carried out by adding the metal chelator EDTA to the Rh6GD-Fe^2+ complex in H2O/THF (pH 7.3, v/v 4:1). […]
Besides metal-selectivity, the binding constant, which describes the strength of binding between the sensor and metal cations, is also an important factor to be considered in bio-imaging. […] Job's method was applied to study the binding stoichiometry between Rh101D and Fe^2+ and monitored by the absorbance at 585 nm.
The binding constants were estimated by using the fluorescence titration results (FIG. 38). […]
The binding stoichiometry and the affinity between the sensor NIRh-Fret and Fe^2+ were investigated by UV-vis absorption titration. […] The binding constant for the formation of this complex was determined to be 2.9×10^6 M^−1 using a reported procedure (C. A. Perez, et al., J. Inorg. Biochem., 2009, 103, 326). […]

Take `CCN(CC)c1ccc2c(c1)OC1=C(CCC/C1=C\C=C1\N(C)c3ccccc3C1(C)C)C21c2ccccc2C(=O)N1/N=C\C=C\c1ccc(N(C)C)cc1` (centres unmarked) [NIRh-Fret, (E)-6′-(diethylamino)-2-(((1Z,2E)-3-(4-(dimethylamino)phenyl)allylidene)amino)-4′-(2-((E)-1,3,3-trimethylindolin-2-ylidene)ethylidene)-1′,2′,3′,4′-tetrahydrospiro[isoindoline-1,9′-xanthen]-3-one]: the “reversibility of binding on addition of EDTA” value is reported as “reversible binding”. With `CN(C)c1ccc(/C=C/C=N/N2C(=O)c3ccccc3C23c2cc4c5c(c2Oc2c3cc3c6c2CCCN6CCC3)CCCN5CCC4)cc1` [Rh101D] the entry was “reversible binding”.
